# In article PMC8269012:
# No constants are given. Whether binding was seen depends on the method and setting. A result given as binding can be weak or reduced; the word gives no strength. For some assays here: Binding seen in cells or lysates may run through a third protein. For some assays here: Sequences can lack the tags named with a protein.
# Columns and labels:
# [1] = target: PwNAC11 (Picea wilsonii); test: two-hybrid; pGADT7-PwNAC11 (called the bait) with pGBKT7 fusions (called the prey) in yeast AH109; growth on SD/Trp-Leu-His-Ura selective medium (methods: SD/-Trp-Ura-His-Ade+X-α-gal)
# [2] = target: PwNAC11-cYFP fusion protein (Picea wilsonii); test: split reporter; BiFC with split YFP (pSPYCE, pSPYNE) in agroinfiltrated Nicotiana benthamiana leaves; YFP signal in nuclei by confocal microscopy
binding [1],binding [2],Binder
binds,,"ABRE Binding Factor3 (ABF3) (protein, UniProt Q9M7Q3 1-454) MGSRLNFKSFVDGVSEQQPTVGTSLPLTRQNSVFSLTFDEFQNSWGGGIGKDFGSMNMDELLKNIWTAEESHSMMGNNTSYTNISNGNSGNTVINGGGNNIGGLAVGVGGESGGFFTGGSLQRQGSLTLPRTISQKRVDDVWKELMKEDDIGNGVVNGGTSGIPQRQQTLGEMTLEEFLVRAGVVREEPQPVESVTNFNGGFYGFGSNGGLGTASNGFVANQPQDLSGNGVAVRQDLLTAQTQPLQMQQPQMVQQPQMVQQPQQLIQTQERPFPKQTTIAFSNTVDVVNRSQPATQCQEVKPSILGIHNHPMNNNLLQAVDFKTGVTVAAVSPGSQMSPDLTPKSALDASLSPVPYMFGRVRKTGAVLEKVIERRQKRMIKNRESAARSRARKQAYTMELEAEIAQLKELNEELQKKQVEIMEKQKNQLLEPLRQPWGMGCKRQCLRRTLTGPW"
,binds,"ABF3 in pSPYNE (BiFC fusion) (protein, UniProt Q9M7Q3 1-454) MGSRLNFKSFVDGVSEQQPTVGTSLPLTRQNSVFSLTFDEFQNSWGGGIGKDFGSMNMDELLKNIWTAEESHSMMGNNTSYTNISNGNSGNTVINGGGNNIGGLAVGVGGESGGFFTGGSLQRQGSLTLPRTISQKRVDDVWKELMKEDDIGNGVVNGGTSGIPQRQQTLGEMTLEEFLVRAGVVREEPQPVESVTNFNGGFYGFGSNGGLGTASNGFVANQPQDLSGNGVAVRQDLLTAQTQPLQMQQPQMVQQPQMVQQPQQLIQTQERPFPKQTTIAFSNTVDVVNRSQPATQCQEVKPSILGIHNHPMNNNLLQAVDFKTGVTVAAVSPGSQMSPDLTPKSALDASLSPVPYMFGRVRKTGAVLEKVIERRQKRMIKNRESAARSRARKQAYTMELEAEIAQLKELNEELQKKQVEIMEKQKNQLLEPLRQPWGMGCKRQCLRRTLTGPW"
